These results are taken from article PMC8543921.

Protein sequences, listed by entry. Tags and fused reporters are not part of them.
UniProt F4JC97: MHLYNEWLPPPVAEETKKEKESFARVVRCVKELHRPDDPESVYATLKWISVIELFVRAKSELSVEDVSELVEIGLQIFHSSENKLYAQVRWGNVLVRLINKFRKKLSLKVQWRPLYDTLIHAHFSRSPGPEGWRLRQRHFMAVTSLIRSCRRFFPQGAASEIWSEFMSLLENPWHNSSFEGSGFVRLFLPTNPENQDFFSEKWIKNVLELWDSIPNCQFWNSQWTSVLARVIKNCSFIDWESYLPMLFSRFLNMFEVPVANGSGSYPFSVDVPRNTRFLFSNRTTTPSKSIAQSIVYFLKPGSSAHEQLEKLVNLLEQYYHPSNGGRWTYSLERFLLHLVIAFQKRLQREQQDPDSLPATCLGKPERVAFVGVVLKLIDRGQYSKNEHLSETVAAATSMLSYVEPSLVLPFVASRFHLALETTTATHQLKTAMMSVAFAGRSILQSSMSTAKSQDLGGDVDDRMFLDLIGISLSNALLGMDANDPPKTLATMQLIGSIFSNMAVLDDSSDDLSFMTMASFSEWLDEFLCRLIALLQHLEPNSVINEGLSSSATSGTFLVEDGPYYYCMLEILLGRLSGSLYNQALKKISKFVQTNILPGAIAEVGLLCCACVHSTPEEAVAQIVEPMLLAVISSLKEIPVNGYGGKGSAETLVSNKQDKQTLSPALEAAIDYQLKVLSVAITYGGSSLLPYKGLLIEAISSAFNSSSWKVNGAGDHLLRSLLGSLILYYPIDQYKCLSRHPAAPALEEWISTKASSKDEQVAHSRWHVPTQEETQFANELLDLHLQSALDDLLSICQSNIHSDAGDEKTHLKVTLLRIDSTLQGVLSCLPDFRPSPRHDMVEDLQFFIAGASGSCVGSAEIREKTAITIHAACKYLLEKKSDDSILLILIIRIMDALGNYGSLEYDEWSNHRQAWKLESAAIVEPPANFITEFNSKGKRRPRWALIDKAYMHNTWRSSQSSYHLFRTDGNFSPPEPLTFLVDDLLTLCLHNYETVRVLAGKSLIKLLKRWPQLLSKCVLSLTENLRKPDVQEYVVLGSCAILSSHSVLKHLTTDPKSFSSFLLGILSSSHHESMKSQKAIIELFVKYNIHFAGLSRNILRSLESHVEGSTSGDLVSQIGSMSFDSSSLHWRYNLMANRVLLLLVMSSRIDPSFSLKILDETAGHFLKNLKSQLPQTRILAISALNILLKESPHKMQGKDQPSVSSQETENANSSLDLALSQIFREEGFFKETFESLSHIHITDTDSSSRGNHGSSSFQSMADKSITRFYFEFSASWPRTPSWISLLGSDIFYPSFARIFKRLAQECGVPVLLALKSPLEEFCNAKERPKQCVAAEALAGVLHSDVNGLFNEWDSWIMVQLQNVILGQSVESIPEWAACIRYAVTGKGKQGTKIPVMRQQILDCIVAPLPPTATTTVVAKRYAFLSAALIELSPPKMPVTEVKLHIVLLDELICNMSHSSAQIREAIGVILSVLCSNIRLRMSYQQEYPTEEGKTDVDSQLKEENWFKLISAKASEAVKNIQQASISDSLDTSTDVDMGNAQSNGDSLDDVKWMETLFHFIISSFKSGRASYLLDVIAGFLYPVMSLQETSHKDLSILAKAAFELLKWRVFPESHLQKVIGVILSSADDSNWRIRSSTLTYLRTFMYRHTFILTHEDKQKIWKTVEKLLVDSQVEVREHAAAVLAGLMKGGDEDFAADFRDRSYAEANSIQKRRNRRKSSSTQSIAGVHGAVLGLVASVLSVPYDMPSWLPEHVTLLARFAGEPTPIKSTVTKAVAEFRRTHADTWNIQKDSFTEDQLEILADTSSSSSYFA

This test deals with T1, PAG1-FLAG (Arabidopsis thaliana) (UniProt O23715).
T1 sequence: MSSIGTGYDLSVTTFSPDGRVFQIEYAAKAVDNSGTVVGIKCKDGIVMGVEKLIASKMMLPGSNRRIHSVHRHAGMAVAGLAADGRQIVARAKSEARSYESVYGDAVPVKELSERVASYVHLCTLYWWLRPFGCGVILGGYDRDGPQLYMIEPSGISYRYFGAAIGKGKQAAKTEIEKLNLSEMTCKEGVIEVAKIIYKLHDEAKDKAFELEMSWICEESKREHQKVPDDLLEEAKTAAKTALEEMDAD
Nature of the test: co-IP; PAG1-FLAG on anti-FLAG M2 resin from seedling lysate, 12-h time point, eluates immunoblotted; eluates made with and without 20 mM ATP, the text does not tell which for this result; less from NaCl-treated seedlings. (In general: A western blot detects proteins with antibodies after separation by electrophoresis.)

These are yes or no findings as the source states them, for the method shown. In cells and extracts the contact can be indirect. Some results given as binding are weak or reduced against the parent protein; the word gives no strength. Sequences can lack the tags named with a protein.

Turning to PA200 (from UniProt F4JC97 1-1811), the binding result is “binds”.
